Mtb growth Cornell: 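Whole-cell assay for inhibitors of Mycobacterium tuberculosis growth, labelled Cornell in the record; the read-out is not stated. The concentration is filed as 10 mM, unlikely as a test dose, so the dose is not known. The record gives no direction; compounds strong in two other growth screens of this library score well above the rest, so higher reads as stronger inhibition. About 53,000 compounds were tested under these conditions; 1.7% (about 900) showed 50% or more at least once.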
Mtb heat-shock: 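Assay on Mycobacterium tuberculosis, filed only as a heat shock assay from Cornell; the read-out is not stated. The concentration is filed as 10 mM, unlikely as a test dose, so the dose is not known. Higher reads as stronger inhibition (inferred: compounds with an IC50 in retests scored well above the rest). Of about 69,000 compounds tested this way, about 930 (1.4%) reached 50% or more in at least one test.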

Each number is a percent effect as filed.
The record does not define 0% and 100%; most values in the screen are far below 50% and negative numbers occur (in some assays of this library far below -100).
The compounds are a random part of those screened.

compound: COc1ccc(NC(=O)NC(C)c2nc[nH]n2)cc1Cl (stereo not drawn)
Mtb heat-shock: 12.83

compound: O=C(O)C(F)(F)F.O=C(O)C(F)(F)F.[H][C@@]12OCCC[C@]1([H])N(C(=O)c1cccc(C)n1)C[C@H]2OCc1ccncc1
Mtb growth Cornell: 29.52
Mtb heat-shock: -18.91

compound: Cc1cccc(CN2CCOCC2c2[nH]ncc2C)n1 (stereo not drawn)
Mtb growth Cornell: 31.13
Mtb heat-shock: 18.46

compound: O=C(O)C(F)(F)F.O=C(O)C(F)(F)F.[H][C@@]12CCN(C3CCCC3)C[C@]1(C(=O)NCc1ccccn1)CCO2
Mtb growth Cornell: 2.962
Mtb heat-shock: 40.27

compound: COc1ccc2nc(C[C@@H]3C[C@@H](C(C)C)[C@H](CN)C=C3C)[nH]c2n1
Mtb heat-shock: 15.54

compound: C[C@H](NC(=O)N1CCC(Cc2ccccc2)CC1)C(=O)O
Mtb growth Cornell: 5.711
Mtb heat-shock: -31.74

compound: CSC1=Nc2c(cnn2-c2ccc(Cl)cc2)C2=NCCCN12
Mtb heat-shock: 26.24

compound: CN(Cc1ccncc1)Cc1nccn1Cc1ccccc1
Mtb growth Cornell: -16.56
Mtb heat-shock: 6.234

compound: COc1ccc2c(c1)OCC(CNc1cc(N)nc(SC)n1)C2 (stereo not drawn)
Mtb growth Cornell: 106.6
Mtb heat-shock: 42.05

compound: COC(=O)C1(NCC(=O)Nc2cc(C)ccc2OC)CCCCC1
Mtb growth Cornell: 35.39
Mtb heat-shock: -28.01

compound: N#Cc1c(N)nc2c(c1-c1c[nH]nc1C1CCCCC1)COCC2
Mtb heat-shock: 3.679

compound: Cc1nnc(-c2cccc(N3CCC(NC4CCSC4)CC3)c2)s1 (stereo not drawn)
Mtb heat-shock: 16.35

compound: OC1(CNc2cc(C(F)(F)F)nc3ccccc23)CCOCC1
Mtb growth Cornell: 18.98
Mtb heat-shock: -15.48

compound: CCc1nc2ccccc2c(=O)n1CC1(O)CCN(C(=O)C2CC2)CC1.Cl
Mtb growth Cornell: 20.46
Mtb heat-shock: -21.92

compound: O=C(O)C(F)(F)F.[H][C@@]12COC[C@]1(COCC1CCOCC1)CN(C1CCC1)C2
Mtb growth Cornell: 1.804
Mtb heat-shock: -2.48

compound: CC(=O)N1CCN(Cc2coc(-c3cccc(F)c3)n2)CC1
Mtb growth Cornell: -11.05
Mtb heat-shock: -10.57

compound: CC(=O)Nc1ccc(Oc2cc(C)nc(C3CCNCC3)c2)cc1.Cl
Mtb growth Cornell: 46.03
Mtb heat-shock: -4.951

compound: Cn1cc(NC(=O)c2cccc(Cl)c2)c(=O)n(C)c1=O
Mtb growth Cornell: -26.92
Mtb heat-shock: 1.933

compound: [H][C@@]12CN(Cc3ccccn3)C(=O)N1CCN(C1CCC1)C2
Mtb growth Cornell: -2.389
Mtb heat-shock: -7.684

compound: [H][C@@]12CC(COCc3ccncc3)C[C@@]1([H])N(C(=O)CN(C)C)CCO2 (stereo partly drawn)
Mtb growth Cornell: -1.274
Mtb heat-shock: 43.4

compound: Cn1cccc1C(=O)N1CCC2(CC1)c1nc[nH]c1CCN2S(C)(=O)=O
Mtb growth Cornell: -3.917
Mtb heat-shock: 6.802

compound: CCC(C)[C@H](N)c1nnc(SCC(=O)Nc2cc(C)ccc2C)o1.Cl (stereo partly drawn)
Mtb growth Cornell: -9.121
Mtb heat-shock: -10.79

compound: CCN(C)C(=O)NCC1(CN2CCOCC2)CCCCC1
Mtb growth Cornell: 23.13
Mtb heat-shock: 7.298

compound: Cc1nn(C)c(Cl)c1C1CCCN1C(=O)c1cc(Cl)c[nH]1 (stereo not drawn)
Mtb growth Cornell: 5.427
Mtb heat-shock: 9.771

compound: CCCC(C#N)NC(=O)Cc1csc(CC)n1 (stereo not drawn)
Mtb growth Cornell: 3.994
Mtb heat-shock: -4.04

compound: CCOCc1ncn2c1CN(C(=O)Nc1cccc(C)c1)CC2
Mtb growth Cornell: 18.62
Mtb heat-shock: 26.97

Once more, the final 3:

- Cc1nn(C)c(Cl)c1C1CCCN1C(=O)c1cc(Cl)c[nH]1 (stereo not drawn) | Mtb growth Cornell: 5.427%; Mtb heat-shock: 9.771%
- CCCC(C#N)NC(=O)Cc1csc(CC)n1 (stereo not drawn) | Mtb growth Cornell: 3.994%; Mtb heat-shock: -4.04%
- CCOCc1ncn2c1CN(C(=O)Nc1cccc(C)c1)CC2 | Mtb growth Cornell: 18.62%; Mtb heat-shock: 26.97%

Measurements from “University of Dundee, Small-Polar-MMV Screening Library” (2021), ChEMBL document CHEMBL3988442.